Data from patent US8221736B2, “Semiochemical” (Rothamsted Research Limited, priority 1999, dated 2012).
At least one compound was matched to its structure with a doubt left.

Test system: broad bean, V. faba (cv The Sutton)
Test: Induction of volatile release by bean plants (air entrainment, GC/GC-MS)
Format: in vivo, Vicia faba
Settings: 24 hour exposure at 100 μg/l in air; 4 entrainment samples of 48 hours up to 192 hours
Description: A possible role for the compound as an airborne plant signal was investigated using the broad bean, V. faba (cv The Sutton). Plants were kept for 24 hours in clean air or in air incorporating cis-jasmone at 100 μg/l; subsequently, samples of volatiles released by the plants were obtained by entrainment over 4 periods of 48 hours, i.e. up to 192 hours after the end of the treatment. The cis-jasmone itself was undetectable after 48 hours. […] There was also, from some replicates, enhancement of (E,E)-α-farnesene, (−)-β-caryophyllene and (E)-4,8-dimethyl-1,3,7-nonatriene. These compounds have all been implicated in herbivorous insect-induced production and increased parasitoid foraging. The nonatriene can also be produced innately by plants imitating damage for defence against herbivores and which are thus attractive to parasitoids.
Bean plants, V. faba (cv The Sutton) were grown under standard glasshouse conditions until the 2-4 leaf stage when they were rinsed free of soil and transplanted into baked glass jars containing washed sand, with 3 plants per jar. These were left for 1-2 days to acclimatize. Plants to be treated (three jars of three plants each) were sealed in a 25 l glass tank for 24 hours with either cis-jasmone or methyl jasmonate (2.5 mg) applied to a piece of filter paper (Whatman No. 1) placed on the floor of the tank. […]

## CC/C=C\CC1=C(C)CCC1=O [cis-jasmone]
  levels of (E)-β-ocimene released by exposed plants relative to control plants: 2½-3
